Results deposited as PubChem BioAssay AID1259405 (NCATS, 2018).
Shown is a random part of about 50,000 deposited reagents. About 4,000 of all reagents (8%) were called active. 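Mouse siRNA library applied to hamster cells; one well for each siRNA.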 Reagents against one gene are numbered here. Reagent sequences are not shown.

- Screen: 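Knock-downs that lift recombinant protein yield in hamster ovary cells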 (primary screen)
- System: Chinese hamster CHO-K1 ovary cells with stable secreted eGFP expression
- Reagent: single siRNA against mouse genes, 0.8 pmol siRNA per well (2 µl of 400 nM stock)
- Duration: 3 days
- Measured: 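Percent of the per-plate non-targeting control median for intracellular GFP per well by laser scanning cytometry and for cell viability by ATP luminescence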
- Direction: GFP, % of control: higher = more GFP per well, higher productivity; viability (ATP), % of control: higher = more viable cells (more ATP)
- Rule for the call: 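Called active when intracellular GFP, relative to negative control, is at or above 120%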

| gene | reagent no. | GFP, % of control | viability (ATP), % of control | activity call |
| --- | --- | --- | --- | --- |
| Defb15 (defensin beta 15) | 1 | 59.6 | 86.9 | inactive |
| Defb15 (defensin beta 15) | 2 | 95.5 | 102 | inactive |
| Defb15 (defensin beta 15) | 3 | 86.7 | 81.7 | inactive |
| Vmn1r211 (vomeronasal 1 receptor 211) | 1 | 42.4 | 36.5 | inactive |
| Vmn1r211 (vomeronasal 1 receptor 211) | 2 | 85.3 | 53.7 | inactive |
| Vmn1r211 (vomeronasal 1 receptor 211) | 3 | 91.8 | 84.4 | inactive |
| Lif (leukemia inhibitory factor) | 1 | 107 | 102 | inactive |
| Lif (leukemia inhibitory factor) | 2 | 83.9 | 77.2 | inactive |
| Hspa1l (heat shock protein 1-like) | 1 | 103 | 60.8 | inactive |
| Hspa1l (heat shock protein 1-like) | 2 | 82.4 | 79.3 | inactive |
| Hspa1l (heat shock protein 1-like) | 3 | 101 | 113 | inactive |
| Tcta (T cell leukemia translocation altered gene) | 1 | 83 | 103 | inactive |
| Tcta (T cell leukemia translocation altered gene) | 2 | 75.5 | 91.5 | inactive |
| Tcta (T cell leukemia translocation altered gene) | 3 | 193 | 175 | active |
| Tcta (T cell leukemia translocation altered gene) | 4 | 87.4 | 77.2 | inactive |
| Tcta (T cell leukemia translocation altered gene) | 5 | 85.8 | 103 | inactive |
| Tcta (T cell leukemia translocation altered gene) | 6 | 95.6 | 103 | inactive |

4 consecutive reagents already listed:
| gene | reagent no. | GFP, % of control | viability (ATP), % of control | activity call |
| --- | --- | --- | --- | --- |
| Tcta (T cell leukemia translocation altered gene) | 1 | 83 | 103 | inactive |
| Tcta (T cell leukemia translocation altered gene) | 2 | 75.5 | 91.5 | inactive |
| Tcta (T cell leukemia translocation altered gene) | 3 | 193 | 175 | active |
| Tcta (T cell leukemia translocation altered gene) | 4 | 87.4 | 77.2 | inactive |

The results go on.
| gene | reagent no. | GFP, % of control | viability (ATP), % of control | activity call |
| --- | --- | --- | --- | --- |
| Pim3 (Pim3, proto-oncogene, serine/threonine kinase) | 1 | 124 | 118 | active |
| Pim3 (Pim3, proto-oncogene, serine/threonine kinase) | 2 | 78.1 | 61.2 | inactive |
| Pim3 (Pim3, proto-oncogene, serine/threonine kinase) | 3 | 68.8 | 53.7 | inactive |
| Fgf7 (fibroblast growth factor 7) | 1 | 61.8 | 78.4 | inactive |
| Fgf7 (fibroblast growth factor 7) | 2 | 59.7 | 54.4 | inactive |
| Fgf7 (fibroblast growth factor 7) | 3 | 36.4 | 53.4 | inactive |
| Slc25a20 | 1 | 62.6 | 74.7 | inactive |
| Slc25a20 | 2 | 106 | 72.2 | inactive |
| Slc25a20 | 3 | 75.9 | 64.3 | inactive |
| Pcdhb20 (protocadherin beta 20) | 1 | 73.7 | 73.9 | inactive |
| Pcdhb20 (protocadherin beta 20) | 2 | 108 | 79.5 | inactive |
| Rpl10 (ribosomal protein L10) | 1 | 76.5 | 55 | inactive |
| Rpl10 (ribosomal protein L10) | 2 | 39.6 | 24.5 | inactive |
| Rpl10 (ribosomal protein L10) | 3 | 26.7 | 21.5 | inactive |
| Eef1akmt2 (EEF1A lysine methyltransferase 2) | 1 | 122 | 75.5 | active |
| Eef1akmt2 (EEF1A lysine methyltransferase 2) | 2 | 96.1 | 89.6 | inactive |
| Eef1akmt2 (EEF1A lysine methyltransferase 2) | 3 | 37.1 | 39.8 | inactive |
